The other results are listed elsewhere or left out.
Tests used:
Experiment in all cases: glycan array binding signal (z-score within array); higher = stronger binding
Conditions in all cases: glycan notation: IUPAC condensed, linker removed
[1] = target: Neu5Ac(a2-3)Gal(b1-4)GlcNAc(b1-3)[Neu5Ac(a2-3)Gal(b1-4)GlcNAc(b1-6)]GalNAc
Method in brief: (§1)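 Columns mapping to the same glycan were averaged after glycan names were converted to IUPAC-condensed notation. The data come from 3228 arrays in the Consortium for Functional Glycomics database, limited to those with an available protein sequence. Binding is reported as a within-array Z-score averaged across arrays of one protein sequence and across linkers.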

[2] = target: Neu5Ac(a2-3)Gal(b1-4)GlcNAc(b1-6)GalNAc
Method in brief: as §1

[3] = target: Neu5Ac(a2-3)Gal(b1-4)GlcNAc(b1-6)[Gal(b1-3)]GalNAc
Method in brief: as §1

[4] = target: Neu5Ac(a2-3)Gal(b1-4)GlcNAc(b1-6)[Neu5Ac(a2-3)Gal(b1-3)]GalNAc
Method in brief: as §1

[5] = target: Neu5Ac(a2-3)Gal(b1-4)GlcNAc6S
Method in brief: as §1

[6] = target: Neu5Ac(a2-3)Gal(b1-4)[Fuc(a1-3)]GlcNAc
Method in brief: as §1

[7] = target: Neu5Ac(a2-3)Gal(b1-4)[Fuc(a1-3)]GlcNAc(b1-2)Man
Method in brief: as §1

[8] = target: Neu5Ac(a2-3)Gal(b1-4)[Fuc(a1-3)]GlcNAc(b1-3)Gal
Method in brief: as §1

[9] = target: Neu5Ac(a2-3)Gal(b1-4)[Fuc(a1-3)]GlcNAc(b1-3)Gal(b1-4)GlcNAc
Method in brief: as §1

[10] = target: Neu5Ac(a2-3)Gal(b1-4)[Fuc(a1-3)]GlcNAc(b1-3)Gal(b1-4)[Fuc(a1-3)]GlcNAc(b1-3)Gal(b1-4)[Fuc(a1-3)]GlcNAc
Method in brief: as §1

[11] = target: Neu5Ac(a2-3)Gal(b1-4)[Fuc(a1-3)]GlcNAc(b1-3)GalNAc
Method in brief: as §1

[12] = target: Neu5Ac(a2-3)Gal(b1-4)[Fuc(a1-3)]GlcNAc(b1-6)[Gal(b1-3)]GalNAc
Method in brief: as §1

[13] = target: Neu5Ac(a2-3)Gal(b1-4)[Fuc(a1-3)]GlcNAc(b1-6)[Neu5Ac(a2-3)Gal(b1-3)]GalNAc
Method in brief: as §1

[14] = target: Neu5Ac(a2-3)Gal(b1-4)[Fuc(a1-3)]GlcNAc6S
Method in brief: as §1

[15] = target: Neu5Ac(a2-3)Gal6S(b1-4)GlcNAc
Method in brief: as §1

[16] = target: Neu5Ac(a2-3)Gal6S(b1-4)[Fuc(a1-3)]GlcNAc
Method in brief: as §1

Neu5Ac(a2-3)GalNAc = target: Neu5Ac(a2-3)GalNAc
Method in brief: as §1

[17] = target: Neu5Ac(a2-3)GalNAc(b1-4)GlcNAc
Method in brief: as §1

[18] = target: Neu5Ac(a2-3)[GalNAc(b1-4)]Gal(b1-4)Glc
Method in brief: as §1

[19] = target: Neu5Ac(a2-3)[GalNAc(b1-4)]Gal(b1-4)GlcNAc
Method in brief: as §1

[20] = target: Neu5Ac(a2-3)[GalNAc(b1-4)]Gal(b1-4)GlcNAc(b1-3)GalNAc
Method in brief: as §1

[21] = target: Neu5Ac(a2-3)[Neu5Ac(a2-6)]GalNAc
Method in brief: as §1

Neu5Ac(a2-6)Gal = target: Neu5Ac(a2-6)Gal
Method in brief: as §1

[22] = target: Neu5Ac(a2-6)Gal(b1-3)GlcNAc(b1-3)[Gal(b1-4)GlcNAc(b1-6)]Gal(b1-4)Glc
Method in brief: as §1

Neu5Ac(a2-6)Gal(b1-4)Glc = target: Neu5Ac(a2-6)Gal(b1-4)Glc
Method in brief: as §1

[23] = target: Neu5Ac(a2-6)Gal(b1-4)GlcNAc
Method in brief: as §1

[24] = target: Neu5Ac(a2-6)Gal(b1-4)GlcNAc(b1-2)Man
Method in brief: as §1

[25] = target: Neu5Ac(a2-6)Gal(b1-4)GlcNAc(b1-2)Man(a1-3)Man(b1-4)GlcNAc(b1-4)GlcNAc
Method in brief: as §1

[26] = target: Neu5Ac(a2-6)Gal(b1-4)GlcNAc(b1-2)Man(a1-3)[Gal(b1-4)GlcNAc(b1-2)Man(a1-6)]Man(b1-4)GlcNAc(b1-4)GlcNAc
Method in brief: as §1

[27] = target: Neu5Ac(a2-6)Gal(b1-4)GlcNAc(b1-2)Man(a1-3)[GlcNAc(b1-2)Man(a1-6)]Man(b1-4)GlcNAc(b1-4)GlcNAc
Method in brief: as §1

[28] = target: Neu5Ac(a2-6)Gal(b1-4)GlcNAc(b1-2)Man(a1-3)[GlcNAc(b1-4)][Neu5Ac(a2-6)Gal(b1-4)GlcNAc(b1-2)Man(a1-6)]Man(b1-4)GlcNAc(b1-4)GlcNAc
Method in brief: as §1

[29] = target: Neu5Ac(a2-6)Gal(b1-4)GlcNAc(b1-2)Man(a1-3)[Man(a1-6)]Man(b1-4)GlcNAc(b1-4)GlcNAc
Method in brief: as §1

[30] = target: Neu5Ac(a2-6)Gal(b1-4)GlcNAc(b1-2)Man(a1-3)[Neu5Ac(a2-3)Gal(b1-4)GlcNAc(b1-2)Man(a1-6)]Man(b1-4)GlcNAc(b1-4)GlcNAc
Method in brief: as §1

[31] = target: Neu5Ac(a2-6)Gal(b1-4)GlcNAc(b1-2)Man(a1-3)[Neu5Ac(a2-6)Gal(b1-4)GlcNAc(b1-2)Man(a1-6)]Man(b1-4)GlcNAc(b1-4)GlcNAc
Method in brief: as §1

[32] = target: Neu5Ac(a2-6)Gal(b1-4)GlcNAc(b1-2)Man(a1-3)[Neu5Ac(a2-6)Gal(b1-4)GlcNAc(b1-2)Man(a1-6)]Man(b1-4)GlcNAc(b1-4)[Fuc(a1-6)]GlcNAc
Method in brief: as §1

[33] = target: Neu5Ac(a2-6)Gal(b1-4)GlcNAc(b1-2)Man(a1-6)Man(b1-4)GlcNAc(b1-4)GlcNAc
Method in brief: as §1

[34] = target: Neu5Ac(a2-6)Gal(b1-4)GlcNAc(b1-2)Man(a1-6)[Gal(b1-4)GlcNAc(b1-2)Man(a1-3)]Man(b1-4)GlcNAc(b1-4)GlcNAc
Method in brief: as §1

[35] = target: Neu5Ac(a2-6)Gal(b1-4)GlcNAc(b1-2)Man(a1-6)[GlcNAc(b1-2)Man(a1-3)]Man(b1-4)GlcNAc(b1-4)GlcNAc
Method in brief: as §1

[36] = target: Neu5Ac(a2-6)Gal(b1-4)GlcNAc(b1-2)Man(a1-6)[Man(a1-3)]Man(b1-4)GlcNAc(b1-4)GlcNAc
Method in brief: as §1

[37] = target: Neu5Ac(a2-6)Gal(b1-4)GlcNAc(b1-2)[Neu5Ac(a2-6)Gal(b1-4)GlcNAc(b1-4)]Man(a1-3)[GlcNAc(b1-4)][Neu5Ac(a2-6)Gal(b1-4)GlcNAc(b1-2)[Neu5Ac(a2-6)Gal(b1-4)GlcNAc(b1-6)]Man(a1-6)]Man(b1-4)GlcNAc(b1-4)GlcNAc
Method in brief: as §1

[38] = target: Neu5Ac(a2-6)Gal(b1-4)GlcNAc(b1-2)[Neu5Ac(a2-6)Gal(b1-4)GlcNAc(b1-4)]Man(a1-3)[GlcNAc(b1-4)][Neu5Ac(a2-6)Gal(b1-4)GlcNAc(b1-4)Man(a1-6)]Man(b1-4)GlcNAc(b1-4)GlcNAc
Method in brief: as §1

[39] = target: Neu5Ac(a2-6)Gal(b1-4)GlcNAc(b1-2)[Neu5Ac(a2-6)Gal(b1-4)GlcNAc(b1-6)]Man(a1-6)[Neu5Ac(a2-6)Gal(b1-4)GlcNAc(b1-2)Man(a1-3)][GlcNAc(b1-4)]Man(b1-4)GlcNAc(b1-4)GlcNAc
Method in brief: as §1

[40] = target: Neu5Ac(a2-6)Gal(b1-4)GlcNAc(b1-3)Gal(b1-3)GlcNAc
Method in brief: as §1

[41] = target: Neu5Ac(a2-6)Gal(b1-4)GlcNAc(b1-3)Gal(b1-4)GlcNAc
Method in brief: as §1

[42] = target: Neu5Ac(a2-6)Gal(b1-4)GlcNAc(b1-3)Gal(b1-4)GlcNAc(b1-2)Man(a1-3)[Neu5Ac(a2-6)Gal(b1-4)GlcNAc(b1-3)Gal(b1-4)GlcNAc(b1-2)Man(a1-6)]GalNAc
Method in brief: as §1

B1: FGF1 (Homo sapiens), P05230 (protein)
chain: MAEGEITTFTALTEKFNLPPGNYKKPKLLYSNGGHFLRILPDGTVDGTRDRSDQHIQLQLSAESVGEVYIKSTETGQYLAMTDGLLYGSQTPNEECLFLERLEENHYNTYISKHAEKNWFVGLKKNGSCKRGPRTHYGQAILFLPLPASSED
- glycan array binding signal (z-score) [1]: -0.483
- glycan array binding signal (z-score) [2]: -0.141
- glycan array binding signal (z-score) [3]: -0.187
- glycan array binding signal (z-score) [4]: -0.954
- glycan array binding signal (z-score) [5]: -0.463
- glycan array binding signal (z-score) [6]: -0.632
- glycan array binding signal (z-score) [7]: -0.767
- glycan array binding signal (z-score) [8]: -0.744
- glycan array binding signal (z-score) [9]: 0.987
- glycan array binding signal (z-score) [10]: -0.968
- glycan array binding signal (z-score) [11]: 1.3
- glycan array binding signal (z-score) [12]: 0.146
- glycan array binding signal (z-score) [13]: 0.465
- glycan array binding signal (z-score) [14]: 0.112
- glycan array binding signal (z-score) [15]: -0.89
- glycan array binding signal (z-score) [16]: -0.669
- glycan array binding signal (z-score) (Neu5Ac(a2-3)GalNAc): 0.463
- glycan array binding signal (z-score) [17]: -0.361
- glycan array binding signal (z-score) [18]: -0.804
- glycan array binding signal (z-score) [19]: -0.855
- glycan array binding signal (z-score) [20]: -0.27
- glycan array binding signal (z-score) [21]: -0.47
- glycan array binding signal (z-score) (Neu5Ac(a2-6)Gal): 1.8
- glycan array binding signal (z-score) [22]: -0.745
- glycan array binding signal (z-score) (Neu5Ac(a2-6)Gal(b1-4)Glc): 0.536
- glycan array binding signal (z-score) [23]: -0.718
- glycan array binding signal (z-score) [24]: 0.963
- glycan array binding signal (z-score) [25]: -0.04
- glycan array binding signal (z-score) [26]: -0.812
- glycan array binding signal (z-score) [27]: 0.337
- glycan array binding signal (z-score) [28]: -0.362
- glycan array binding signal (z-score) [29]: -0.035
- glycan array binding signal (z-score) [30]: -0.737
- glycan array binding signal (z-score) [31]: 0.039
- glycan array binding signal (z-score) [32]: -0.706
- glycan array binding signal (z-score) [33]: -0.414
- glycan array binding signal (z-score) [34]: -0.298
- glycan array binding signal (z-score) [35]: -0.691
- glycan array binding signal (z-score) [36]: 0.651
- glycan array binding signal (z-score) [37]: -0.425
- glycan array binding signal (z-score) [38]: -0.019
- glycan array binding signal (z-score) [39]: -0.541
- glycan array binding signal (z-score) [40]: -0.667
- glycan array binding signal (z-score) [41]: -0.866
- glycan array binding signal (z-score) [42]: -0.026
